Results are given in words; binding and its absence hold for the method and conditions named. In cells and extracts the contact can be indirect. Some binding calls cover weakened binding; strength is not graded here. For part of these data: Where a sequence is shown, tags or fusion partners need not be part of it.

Protein sequences, listed by entry. Tags and fused reporters are not part of them.
UniProt Q8R4B8: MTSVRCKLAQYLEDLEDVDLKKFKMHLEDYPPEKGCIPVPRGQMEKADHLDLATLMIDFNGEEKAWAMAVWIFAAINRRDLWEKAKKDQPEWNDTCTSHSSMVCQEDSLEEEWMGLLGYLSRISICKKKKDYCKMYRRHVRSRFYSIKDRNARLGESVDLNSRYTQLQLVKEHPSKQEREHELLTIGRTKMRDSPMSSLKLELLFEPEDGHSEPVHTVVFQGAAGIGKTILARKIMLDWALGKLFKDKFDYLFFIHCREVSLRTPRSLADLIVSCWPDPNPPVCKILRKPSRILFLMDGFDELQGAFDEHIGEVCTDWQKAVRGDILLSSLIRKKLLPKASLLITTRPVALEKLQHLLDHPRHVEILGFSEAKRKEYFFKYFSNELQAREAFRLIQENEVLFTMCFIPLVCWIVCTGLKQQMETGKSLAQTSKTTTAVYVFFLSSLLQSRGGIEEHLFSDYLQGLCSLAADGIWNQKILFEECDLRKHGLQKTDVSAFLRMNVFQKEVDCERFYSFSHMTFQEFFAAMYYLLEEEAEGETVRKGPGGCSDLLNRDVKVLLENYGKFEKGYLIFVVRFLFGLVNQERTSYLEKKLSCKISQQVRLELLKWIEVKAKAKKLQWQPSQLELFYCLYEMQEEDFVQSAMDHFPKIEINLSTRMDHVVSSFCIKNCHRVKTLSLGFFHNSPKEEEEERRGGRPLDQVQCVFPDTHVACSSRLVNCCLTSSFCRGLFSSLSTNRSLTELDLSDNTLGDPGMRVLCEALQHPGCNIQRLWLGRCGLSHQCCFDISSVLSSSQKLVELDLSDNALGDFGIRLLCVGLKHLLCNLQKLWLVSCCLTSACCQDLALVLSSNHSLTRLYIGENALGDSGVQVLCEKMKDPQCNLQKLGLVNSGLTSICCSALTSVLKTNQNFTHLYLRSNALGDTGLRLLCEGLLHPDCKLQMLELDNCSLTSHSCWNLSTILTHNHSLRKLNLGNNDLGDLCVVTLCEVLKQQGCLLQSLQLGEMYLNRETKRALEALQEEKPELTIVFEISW
UniProt Q9ULZ3: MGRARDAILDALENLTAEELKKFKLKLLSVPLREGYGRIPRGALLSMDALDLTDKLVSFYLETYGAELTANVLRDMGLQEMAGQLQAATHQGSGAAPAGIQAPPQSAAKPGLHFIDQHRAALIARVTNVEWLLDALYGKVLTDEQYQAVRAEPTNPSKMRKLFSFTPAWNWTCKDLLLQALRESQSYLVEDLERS
UniProt P29466: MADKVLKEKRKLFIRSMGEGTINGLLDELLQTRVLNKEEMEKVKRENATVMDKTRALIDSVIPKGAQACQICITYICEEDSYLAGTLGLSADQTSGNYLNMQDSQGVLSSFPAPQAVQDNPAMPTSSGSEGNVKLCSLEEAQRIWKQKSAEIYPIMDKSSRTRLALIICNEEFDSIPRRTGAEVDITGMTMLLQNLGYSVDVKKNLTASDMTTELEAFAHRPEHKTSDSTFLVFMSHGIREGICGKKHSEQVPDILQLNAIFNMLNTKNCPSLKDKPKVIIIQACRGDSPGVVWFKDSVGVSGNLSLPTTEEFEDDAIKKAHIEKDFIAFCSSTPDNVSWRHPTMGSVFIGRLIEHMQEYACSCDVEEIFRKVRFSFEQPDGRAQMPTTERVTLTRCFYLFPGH

From PMC10548170 come the findings set out here.

The target of assay [1] is T1, Myc-MARCH5 (UniProt Q9NX47).
T1 sequence: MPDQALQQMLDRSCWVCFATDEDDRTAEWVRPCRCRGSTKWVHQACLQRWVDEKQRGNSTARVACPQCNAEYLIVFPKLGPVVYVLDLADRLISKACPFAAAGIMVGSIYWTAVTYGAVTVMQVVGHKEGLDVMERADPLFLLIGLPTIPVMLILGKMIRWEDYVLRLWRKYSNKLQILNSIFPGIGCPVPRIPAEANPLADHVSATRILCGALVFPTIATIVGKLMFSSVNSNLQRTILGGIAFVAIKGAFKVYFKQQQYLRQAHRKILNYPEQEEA
The assay can be described thus: co-IP; HEK293T cells cotransfected with Myc-MARCH5 and FLAG-tagged NLRP3, ASC or pro-caspase-1; text: anti-Myc antibody, legend: anti-FLAG-M2 beads.

In assay [2] the target is NLRP3 (NOD-like receptor family pyrin domain containing 3), endogenous mouse (mouse (endogenous in BMDMs)) (UniProt Q8R4B8). Kind of assay: co-IP; BMDMs treated with LPS plus nigericin (with and without MARCH5); immunoprecipitation with anti-NLRP3 antibody (Appendix Fig S1B).

Consider FLAG-ASC (from UniProt Q9ULZ3 1-195), for which the binding entry in assay [1] is given as “binds”.
On to “FLAG-pro-caspase-1 (from UniProt P29466 1-404) (enzyme)”, for which, in assay [1], the binding result is “no binding”.

B1: MAVS, endogenous mouse (protein, UniProt Q8VCF0 1-503)
chain: MTFAEDKTYKYIRDNHSKFCCVDVLEILPYLSCLTASDQDRLRASYRQIGNRDTLWGLFNNLQRRPGWVEVFIRALQICELPGLADQVTRVYQSYLPPGTSLRSLEPLQLPDFPAAVSGPSAFAPGHNIPDHGLRETPSCPKPVQDTQPPESPVENSEQLLQTNSGAVARMSGGSLIPSPNQQALSPQPSREHQEQEPELGGAHAANVASVPIATYGPVSPTVSFQPLPRTALRTNLLSGVTVSALSADTSLSSSSTGSAFAKGAGDQAKAATCFSTTLTNSVTTSSVPSPRLVPVKTMSSKLPLSSKSTAAMTSTVLTNTAPSKLPSNSVYAGTVPSRVPASVAKAPANTIPPERNSKQAKETPEGPATKVTTGGNQTGPNSSIRSLHSGPEMSKPGVLVSQLDEPFSACSVDLAISPSSSLVSEPNHGPEENEYSSFRIQVDESPSADLLGSPEPLATQQPQEEEEHCASSMPWAKWLGATSALLAVFLAVMLYRSRRLAQ
Turning to B1, in assay [2], the binding entry was “binds”.
